Source: patent US20100166764A1 (Eli Lilly, published 2010)
Numbering of substitutions follows the chain as printed. These are yes or no findings as the source states them, for the method shown. Some binding calls cover weakened binding; strength is not graded here.

T1: mature myostatin (human, murine, rat, chicken, turkey, canine, equine and porcine (one mature sequence))
T1 sequence: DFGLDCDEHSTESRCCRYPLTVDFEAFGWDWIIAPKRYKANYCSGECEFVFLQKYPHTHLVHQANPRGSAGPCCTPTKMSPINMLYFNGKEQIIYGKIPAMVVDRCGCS

B1: 510C2 Fab (Fab, V domains shown)
VH: QVTLRESGPALVKPTQTLTLTCTFSGFSLRKVGRSVSWIRQPPGKALEWLAHIYWDDDKRYNPSLRNRLTISKDTSKNQVVLTMTNMDPVDTATYYCARRAITTVIGGGTFDYWGQGTTVTVSS
VL: DIQMTQSPSSLSASVGDRVTITCSASSSISYMHWYQQKPGKAPKLLIYDTSKLARGVPSRFSGSGSGTDFTLTISSLQPEDFATYYCQQWYRNPLTFGGGTKVEIK
B2: 510C2 Fab with the Asn residue in CDRL3 replaced with A (Fab, V domains shown)
VH: B1 VH
VL: B1 VL with N93A
B3: 510C2 Fab with the Asn residue in CDRL3 replaced with H (Fab, V domains shown)
VH: B1 VH
VL: B1 VL with N93H
B4: 510C2 Fab with the Asn residue in CDRL3 replaced with S (Fab, V domains shown)
VH: B1 VH
VL: B1 VL with N93S
B5: 510C2 Fab with the Asn residue in CDRL3 replaced with T (Fab, V domains shown)
VH: B1 VH
VL: B1 VL with N93T
B6: 510C2 Fab with the Asn residue in CDRL3 replaced with arginine (Fab, V domains shown)
VH: B1 VH
VL: B1 VL with N93R
B7: 510C2 Fab with the Asn residue in CDRL3 replaced with aspartic acid (Fab, V domains shown)
VH: B1 VH
VL: B1 VL with N93D
B8: 510C2 Fab with the Asn residue in CDRL3 replaced with cysteine (Fab, V domains shown)
VH: B1 VH
VL: B1 VL with N93C
B9: 510C2 Fab with the Asn residue in CDRL3 replaced with glutamic acid (Fab, V domains shown)
VH: B1 VH
VL: B1 VL with N93E
B10: 510C2 Fab with the Asn residue in CDRL3 replaced with glutamine (Fab, V domains shown)
VH: B1 VH
VL: B1 VL with N93Q
B11: 510C2 Fab with the Asn residue in CDRL3 replaced with glycine (Fab, V domains shown)
VH: B1 VH
VL: B1 VL with N93G
B12: 510C2 Fab with the Asn residue in CDRL3 replaced with isoleucine (Fab, V domains shown)
VH: B1 VH
VL: B1 VL with N93I
B13: 510C2 Fab with the Asn residue in CDRL3 replaced with leucine (Fab, V domains shown)
VH: B1 VH
VL: B1 VL with N93L
B14: 510C2 Fab with the Asn residue in CDRL3 replaced with lysine (Fab, V domains shown)
VH: B1 VH
VL: B1 VL with N93K
B15: 510C2 Fab with the Asn residue in CDRL3 replaced with methionine (Fab, V domains shown)
VH: B1 VH
VL: B1 VL with N93M
B16: 510C2 Fab with the Asn residue in CDRL3 replaced with phenylalanine (Fab, V domains shown)
VH: B1 VH
VL: B1 VL with N93F
B17: 510C2 Fab with the Asn residue in CDRL3 replaced with tyrosine (Fab, V domains shown)
VH: B1 VH
VL: B1 VL with N93Y
B18: 510C2 Fab with the Asn residue in CDRL3 replaced with valine (Fab, V domains shown)
VH: B1 VH
VL: B1 VL with N93V
B19: 510C2 Fab with the Asn residue in CDRL3 replaced with tryptophan (Fab, V domains shown)
VH: B1 VH
VL: B1 VL with N93W
B20: 510C2 Fab with the Asn residue in CDRL3 replaced with proline (Fab, V domains shown)
VH: B1 VH
VL: B1 VL with N93P

Target: T1, mature myostatin (human, murine, rat, chicken, turkey, canine, equine and porcine (one mature sequence))
Assay: ELISA, myostatin coated, periprep Fab titrated, anti-human-kappa-AP

binding, binds:
B1
B2
B3
B4
B5
B6
B7
B8
B9
B10
B11
B12
B13
B14
B15
B16
B17
B18
B19
B20

Target: T1, mature myostatin (human, murine, rat, chicken, turkey, canine, equine and porcine (one mature sequence))
Assay: ELISA on plate-coated myostatin, periprep Fab in serial dilution, detection with goat anti-human-kappa-AP, O.D. against Fab concentration (ng/ml)

binding, binds:
B1
B2
B3
B4
B5
